Experimental data: publication PMC3814328

Protein sequences, listed by entry. Tags and fused reporters are not part of them. Lines headed by an entry give the natural chain unless they say otherwise; changes in a name come on top.
UniProt C4Y434: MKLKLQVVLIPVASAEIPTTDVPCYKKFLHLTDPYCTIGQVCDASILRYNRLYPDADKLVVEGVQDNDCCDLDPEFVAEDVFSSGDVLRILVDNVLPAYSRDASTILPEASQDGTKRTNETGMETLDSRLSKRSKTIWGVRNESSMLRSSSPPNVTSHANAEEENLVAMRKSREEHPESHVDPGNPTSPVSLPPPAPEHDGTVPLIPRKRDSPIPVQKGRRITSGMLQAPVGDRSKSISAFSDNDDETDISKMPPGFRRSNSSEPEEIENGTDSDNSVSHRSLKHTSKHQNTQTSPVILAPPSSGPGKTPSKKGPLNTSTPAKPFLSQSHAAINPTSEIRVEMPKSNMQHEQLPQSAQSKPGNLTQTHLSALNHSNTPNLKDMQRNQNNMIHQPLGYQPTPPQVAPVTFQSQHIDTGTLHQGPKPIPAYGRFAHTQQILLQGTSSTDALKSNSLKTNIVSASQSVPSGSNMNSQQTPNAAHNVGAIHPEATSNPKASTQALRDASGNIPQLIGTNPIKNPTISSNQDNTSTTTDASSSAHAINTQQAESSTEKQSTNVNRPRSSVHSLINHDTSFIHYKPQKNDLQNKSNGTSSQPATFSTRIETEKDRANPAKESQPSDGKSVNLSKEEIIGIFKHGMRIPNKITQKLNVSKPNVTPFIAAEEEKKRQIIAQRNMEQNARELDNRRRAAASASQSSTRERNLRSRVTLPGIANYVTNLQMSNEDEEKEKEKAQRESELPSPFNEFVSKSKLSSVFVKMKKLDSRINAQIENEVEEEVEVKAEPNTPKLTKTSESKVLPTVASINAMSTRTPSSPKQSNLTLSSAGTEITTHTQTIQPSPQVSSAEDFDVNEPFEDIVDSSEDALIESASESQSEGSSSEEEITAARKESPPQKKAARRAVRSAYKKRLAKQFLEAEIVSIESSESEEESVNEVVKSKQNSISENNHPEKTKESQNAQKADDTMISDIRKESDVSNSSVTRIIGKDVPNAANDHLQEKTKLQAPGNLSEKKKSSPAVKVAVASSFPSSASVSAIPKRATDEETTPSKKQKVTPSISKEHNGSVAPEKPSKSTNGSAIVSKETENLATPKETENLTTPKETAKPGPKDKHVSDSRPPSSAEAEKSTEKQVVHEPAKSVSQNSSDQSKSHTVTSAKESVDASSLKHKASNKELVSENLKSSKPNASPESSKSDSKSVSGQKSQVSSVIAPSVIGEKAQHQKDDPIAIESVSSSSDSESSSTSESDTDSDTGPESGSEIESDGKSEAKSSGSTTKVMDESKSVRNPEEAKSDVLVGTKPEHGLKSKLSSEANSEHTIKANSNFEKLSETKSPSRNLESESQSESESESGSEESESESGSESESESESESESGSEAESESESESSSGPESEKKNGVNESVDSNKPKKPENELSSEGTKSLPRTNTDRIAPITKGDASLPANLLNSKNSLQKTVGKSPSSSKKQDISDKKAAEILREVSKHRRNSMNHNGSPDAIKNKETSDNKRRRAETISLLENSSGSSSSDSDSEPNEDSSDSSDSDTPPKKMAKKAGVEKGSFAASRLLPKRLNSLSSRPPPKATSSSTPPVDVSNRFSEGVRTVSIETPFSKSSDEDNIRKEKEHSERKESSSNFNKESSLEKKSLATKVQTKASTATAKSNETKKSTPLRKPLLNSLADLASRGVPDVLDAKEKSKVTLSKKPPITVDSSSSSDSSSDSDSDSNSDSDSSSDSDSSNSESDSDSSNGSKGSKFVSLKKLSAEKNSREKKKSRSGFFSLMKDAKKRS

Target: Myc-tagged ClHst1 (product of CLUG_01277, Sir2 ortholog of Clavispora lusitaniae) (Clavispora lusitaniae) (UniProt C4XZ95)
Assay: affinity purification with mass spectrometry; myc-tagged ClHst1 partially purified from clarified C. lusitaniae lysate on anti-c-myc agarose resin, overnight at 4°C; lysis buffer 50 mM HEPES-KOH pH 7.5, 0.5 M NaCl, 10% glycerol, 0.5% NP-40, 1 mM EDTA; lysate treated with heparin and benzonase; SDS-PAGE gel slices analysed by LC-MS/MS; untagged strain as negative control

binding: binds
Substance: ClNet1 (product of CLUG_02406, similar to ScNet1) (from UniProt C4Y434)

These are yes or no findings as the source states them, for the method shown. Binding seen in cells or lysates may run through a third protein. A yes stands for co-enrichment or nearness to the bait. Other partners may have been found.
